Test results as given in publication PMC3163911.
No constants are given. Whether binding was seen depends on the method and setting. Some results given as binding are weak or reduced against the parent protein; the word gives no strength. Where a sequence is shown, tags or fusion partners need not be part of it.

Target: SARS-CoV nucleocapsid protein (yeast two-hybrid fusion) (SARS-CoV) (UniProt P59595)
Assay: two-hybrid

B1: cytochrome p450 subfamily 4F polypeptide 3 (CYP4F3A) (yeast two-hybrid fusion) (protein, UniProt Q08477-1 1-520)
chain: MPQLSLSSLGLWPMAASPWLLLLLVGASWLLARILAWTYTFYDNCCRLRCFPQPPKRNWFLGHLGLIHSSEEGLLYTQSLACTFGDMCCWWVGPWHAIVRIFHPTYIKPVLFAPAAIVPKDKVFYSFLKPWLGDGLLLSAGEKWSRHRRMLTPAFHFNILKPYMKIFNESVNIMHAKWQLLASEGSARLDMFEHISLMTLDSLQKCVFSFDSHCQEKPSEYIAAILELSALVTKRHQQILLYIDFLYYLTPDGQRFRRACRLVHDFTDAVIQERRRTLPSQGVDDFLQAKAKSKTLDFIDVLLLSKDEDGKKLSDEDIRAEADTFMFEGHDTTASGLSWVLYHLAKHPEYQERCRQEVQELLKDREPKEIEWDDLAQLPFLTMCIKESLRLHPPVPAVSRCCTQDIVLPDGRVIPKGIICLISVFGTHHNPAVWPDPEVYDPFRFDPKNIKERSPLAFIPFSAGPRNCIGQAFAMAEMKVVLGLTLLRFRVLPDHTEPRRKPELVLRAEGGLWLRVEPLS
B1 was tested, and the binding was “binds”.
